Source: paper PMC6499997, “SGIP1α functions as a selective endocytic adaptor for the internalization of synaptotagmin 1 at synapses” (Molecular Brain, 2019)
These are yes or no findings as the source states them, for the method shown. In cells and extracts the contact can be indirect. Binding calls can cover weak binding; strength is not graded here. Tags and fused reporters may be left off the sequences shown.

By UniProt entry, the sequences of proteins in these tests, tags left out. Where a name states a change or a piece, a line headed by the entry shows the natural chain unless it says otherwise.
UniProt P21579: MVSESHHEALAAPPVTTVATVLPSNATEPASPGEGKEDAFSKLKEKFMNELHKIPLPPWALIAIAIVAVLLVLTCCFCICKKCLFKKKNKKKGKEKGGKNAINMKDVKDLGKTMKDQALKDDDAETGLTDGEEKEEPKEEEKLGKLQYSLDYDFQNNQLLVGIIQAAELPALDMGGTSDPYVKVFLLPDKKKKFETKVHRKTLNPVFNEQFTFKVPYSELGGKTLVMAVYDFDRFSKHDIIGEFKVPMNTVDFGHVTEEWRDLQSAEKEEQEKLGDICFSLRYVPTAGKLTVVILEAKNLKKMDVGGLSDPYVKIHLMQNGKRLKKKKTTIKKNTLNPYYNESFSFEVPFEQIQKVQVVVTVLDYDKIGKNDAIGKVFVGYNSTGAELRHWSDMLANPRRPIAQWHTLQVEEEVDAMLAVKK

Molecular target: T1, Recombinant human GST-Syt1-C2AB domain (human, UniProt P21579 81-422)
T1 construct: human synaptotagmin 1, cytoplasmic C2AB domains (C2A and C2B); Construct was a gift (Dr. Namgi Lee); also called C2AB fusion protein; GST-fused cytoplasmic (C2AB) domains of Syt1; not shown: GST, N-terminal, kept
Experiment: pull-down; GST fusion protein on beads incubated with cleared extracts of transfected HEK293T cells (1 mg at 1 mg/ml) for 4 h at 4 °C; lysis buffer 20 mM Tris-HCl pH 8.0, 137 mM NaCl, 2 mM EDTA, 1% Triton X-100; bound proteins detected by immunoblot for HA; only the target purified

| binding | Binder |
| --- | --- |
| binds | HA-SGIP1α-μHD (aa 550–854) (domain or fragment, UniProt Q8VD37-6 550-854) ENEQPSLVWFDRGKFYLTFEGSSRGPSPLTMGAQDTLPVAAAFTETVNAYFKGADPSKCIVKITGEMVLSFPAGITRHFANNPSPAALTFRVVNSSRLEHVLPNPQLLCCDNTQNDANTKEFWVNMPNLMTHLKKVSEQKPQATYYNVDMLKYQVSAQGIQSTPLNLAVNWRCEPASTDLRIDYKYNTDAMSTAVALNNVQFLVPIDGGVTKLQAVLPPAVWNAEQQRILWKIPDISQKSENGGVGSLLARFQLSEGPSKPSPLVVQFTSEGSTLSGCDIELVGAGYRFSLIKKRFAAGKYLADN |
| no binding | HA-SGIP1α-ΔμHD (aa 1–549) (domain or fragment, UniProt Q8VD37-6 1-549) MMEGLKKRTRKAFGIRKKEKDTDSTGSPDRDGMQGKKKAQKTQLLLTSCFWLRALSLTLSQQPSPHEPPYHSKAECAREGGKKASKKSNGAPNGFYAEIDWERYNSPELDEEGYSIRPEEPGSTKGKHFYSSSESEEEEESHKKFNIKIKPLQSKDVLKNAATVDELKASIGNIALSPSPVRKSPRRSPGAIKRNLSSEEVARPRRSTPTPELTSKKPLDDTLALAPLFGPPLESAFDEQKTEVLLDQPEIWGSGQPMNPSTESPELARPFPTGTPPPLPPKTVPATPPRTGSPLTVATGNDQAATEAKIEKLPSISDLDSIFGPVLSPKSVAVNTEEKWVHFSDASPEHVTPELTPREQVVTPPAASDIPADSPAPAPPGPTGSAGPPGPPGPRHVPSPLNLEEVQKKVAEQTFIKDDYLETLSSPKECGLGQRATPPPPPPPTYRTVVSSPGPGSGSGTGTTSGASSPARPATPLVPCSTTPPPPPPRPPSRPKLPPGKPGVGDVSRPFSPPIHSSSPPPIAPLARAESTSSISSTNSLSAATTPTV |
| binds | HA-tagged SGIP1α (protein, UniProt Q8VD37-6 1-854) MMEGLKKRTRKAFGIRKKEKDTDSTGSPDRDGMQGKKKAQKTQLLLTSCFWLRALSLTLSQQPSPHEPPYHSKAECAREGGKKASKKSNGAPNGFYAEIDWERYNSPELDEEGYSIRPEEPGSTKGKHFYSSSESEEEEESHKKFNIKIKPLQSKDVLKNAATVDELKASIGNIALSPSPVRKSPRRSPGAIKRNLSSEEVARPRRSTPTPELTSKKPLDDTLALAPLFGPPLESAFDEQKTEVLLDQPEIWGSGQPMNPSTESPELARPFPTGTPPPLPPKTVPATPPRTGSPLTVATGNDQAATEAKIEKLPSISDLDSIFGPVLSPKSVAVNTEEKWVHFSDASPEHVTPELTPREQVVTPPAASDIPADSPAPAPPGPTGSAGPPGPPGPRHVPSPLNLEEVQKKVAEQTFIKDDYLETLSSPKECGLGQRATPPPPPPPTYRTVVSSPGPGSGSGTGTTSGASSPARPATPLVPCSTTPPPPPPRPPSRPKLPPGKPGVGDVSRPFSPPIHSSSPPPIAPLARAESTSSISSTNSLSAATTPTVENEQPSLVWFDRGKFYLTFEGSSRGPSPLTMGAQDTLPVAAAFTETVNAYFKGADPSKCIVKITGEMVLSFPAGITRHFANNPSPAALTFRVVNSSRLEHVLPNPQLLCCDNTQNDANTKEFWVNMPNLMTHLKKVSEQKPQATYYNVDMLKYQVSAQGIQSTPLNLAVNWRCEPASTDLRIDYKYNTDAMSTAVALNNVQFLVPIDGGVTKLQAVLPPAVWNAEQQRILWKIPDISQKSENGGVGSLLARFQLSEGPSKPSPLVVQFTSEGSTLSGCDIELVGAGYRFSLIKKRFAAGKYLADN |
